Source: the supplement of paper PMC10689618
Where “and” joins values, the source holds several entries; their conditions need not be identical. Identical values can stand only once. Counter-ions that a name gives are not always drawn. The list shows a part of the results. Single values are uncertain, as repeats are few or missing.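 Primary human fetal astrocytes engulfed labelled rat cortical synaptosomes, measured as a red/green ratio corrected for calcein live-cell signal and scaled to the plate median. Toxicity meant calcein falling over 30%; decreased phagocytosis meant below 70% of median above 5 µM.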

Assays:
Conditions in all cases: 24 h
[1] = system: Human fetal astrocytes; assay: loss of total cells relative to no-compound high-control median (toxicity); higher = more toxic (fewer cells)
[2] = system: Human fetal astrocytes; assay: synaptosome phagocytosis (pHrodo/calcein intensity ratio) relative to plate median of data wells; higher = more phagocytosis
[3] = system: Human fetal astrocytes; assay: loss of total cells relative to no-compound high-control median (toxicity); higher = more toxic (fewer cells); remark: listed apart in the source
[4] = system: Human fetal astrocytes; assay: synaptosome phagocytosis (pHrodo/calcein intensity ratio) relative to plate median of data wells; higher = more phagocytosis; remark: listed apart in the source

Question: Which results are given for `CC(Cc1ccc(OCC(=O)O)cc1)NCC(O)c1cccc(Cl)c1` (stereo not drawn)?
Answer: loss of total cells ([1]; 1.39 µM): -25.7%; loss of total cells ([1]; 2.78 µM): -11.7%; loss of total cells ([1]; 5.56 µM): -13.4%; loss of total cells ([1]; 11.11 µM): -24.7%; loss of total cells ([1]; 22.22 µM): -2.6%; synaptosome phagocytosis ([2]; 1.39 µM): 102%; synaptosome phagocytosis ([2]; 2.78 µM): 100%; synaptosome phagocytosis ([2]; 5.56 µM): 66.5%; synaptosome phagocytosis ([2]; 11.11 µM): 98.2%; synaptosome phagocytosis ([2]; 22.22 µM): 121%

Question: For `CCCN(CCC)C1CCc2ccc(O)cc2C1` (racemic) [(±)-7-Hydroxy-DPAT hydrobromide], which “loss of total cells” value ([1]; 1.39 µM) is on record?
Answer: -11.3%

Question: And the “loss of total cells” value ([1]; 2.78 µM)?
Answer: -12.8%

Question: What about the “loss of total cells” value ([1]; 5.56 µM) of the same molecule?
Answer: 9.9%

Question: And the “loss of total cells” value ([1]; 11.11 µM)?
Answer: -18.4%

Question: And the “loss of total cells” value ([1]; 22.22 µM)?
Answer: -29.6%

Question: And the synaptosome phagocytosis ([2]; 1.39 µM)?
Answer: 90.7%

Question: What about the synaptosome phagocytosis ([2]; 2.78 µM) of the same molecule?
Answer: 124%

Question: What about the synaptosome phagocytosis ([2]; 5.56 µM) of the same molecule?
Answer: 87.2%

Question: And the synaptosome phagocytosis ([2]; 11.11 µM)?
Answer: 89.1%

Question: And the synaptosome phagocytosis ([2]; 22.22 µM)?
Answer: 91.6%

Question: Which results are given for `C/C=C(/C)C(=O)O[C@H]1CC[C@@]2(C)[C@@H]3CC[C@H]4[C@]5(O)C[C@H](O)[C@@]6(O)[C@@H](CN7C[C@@H](C)CC[C@H]7[C@@]6(C)O)[C@]5(O)C[C@]42O[C@]13O`?
Answer: loss of total cells ([3]; 1.39 µM): -13.1% and -1.6%; loss of total cells ([3]; 2.78 µM): -4.7%; loss of total cells ([3]; 5.56 µM): 0% and -16.1%; loss of total cells ([3]; 11.11 µM): -10.1% and 8.8%; loss of total cells ([3]; 22.22 µM): 5.2% and 0%; synaptosome phagocytosis ([4]; 1.39 µM): 101% and 88.9%; synaptosome phagocytosis ([4]; 5.56 µM): 80.4% and 64.4%; synaptosome phagocytosis ([4]; 11.11 µM): 97.4% and 120%

Question: Which “loss of total cells” value ([3]; 1.39 µM) does the source give for `C[C@]12CC[C@H](Cl)C[C@@H]1CC[C@@H]1[C@@H]2CC[C@]2(C)C(=O)CC[C@@H]12` [3beta-CHLOROANDROSTANONE] here?
Answer: -20.7%

Question: And the “loss of total cells” value ([3]; 2.78 µM)?
Answer: -13.3%

Question: What about the “loss of total cells” value ([3]; 5.56 µM) of the same molecule?
Answer: 33.6%

Question: And the “loss of total cells” value ([3]; 11.11 µM)?
Answer: 3.2%

Question: And the “loss of total cells” value ([3]; 22.22 µM)?
Answer: 27%

Question: What about the synaptosome phagocytosis ([4]; 1.39 µM) of the same molecule?
Answer: 90%

Question: What about the synaptosome phagocytosis ([4]; 2.78 µM) of the same molecule?
Answer: 87.9%

Question: What about the synaptosome phagocytosis ([4]; 5.56 µM) of the same molecule?
Answer: 98.5%

Question: And the synaptosome phagocytosis ([4]; 11.11 µM)?
Answer: 98.1%

Question: What about the synaptosome phagocytosis ([4]; 22.22 µM) of the same molecule?
Answer: 122%

Question: What does the source list for `O=C1C=CC(=O)C=C1` [p-Benzoquinone]?
Answer: loss of total cells ([1]; 1.39 µM): -18%; loss of total cells ([1]; 2.78 µM): -5.4%; loss of total cells ([1]; 5.56 µM): -15.2%; loss of total cells ([1]; 11.11 µM): -4%; loss of total cells ([1]; 22.22 µM): 8.6%; synaptosome phagocytosis ([2]; 1.39 µM): 88.1%; synaptosome phagocytosis ([2]; 2.78 µM): 75.1%; synaptosome phagocytosis ([2]; 5.56 µM): 90.2%; synaptosome phagocytosis ([2]; 11.11 µM): 83.4%; synaptosome phagocytosis ([2]; 22.22 µM): 102%

Question: Which results are given for `CC(C)(C)c1cc(C=C(C#N)C#N)cc(C(C)(C)C)c1O` [Tyrphostin A9]?
Answer: loss of total cells ([1]; 1.39 µM): -17.7%; loss of total cells ([1]; 2.78 µM): -10.5%; loss of total cells ([1]; 5.56 µM): 1.7%; loss of total cells ([1]; 11.11 µM): 53.3%; loss of total cells ([1]; 22.22 µM): 32.9%; synaptosome phagocytosis ([2]; 1.39 µM): 109%; synaptosome phagocytosis ([2]; 2.78 µM): 96%; synaptosome phagocytosis ([2]; 5.56 µM): 79.8%; synaptosome phagocytosis ([2]; 11.11 µM): 45.4%; synaptosome phagocytosis ([2]; 22.22 µM): 35.8%

Question: Which “loss of total cells” value ([1]; 1.39 µM) does the source give for `CCc1c(C(=O)OC)ncc2[nH]c3cc(OC)c(OC)cc3c12` [Methyl 6,7-dimethoxy-4-ethyl-beta-carboline-3-carboxylate] here?
Answer: -8.8%

Question: What about the “loss of total cells” value ([1]; 2.78 µM) of the same molecule?
Answer: -23.1%

Question: What about the “loss of total cells” value ([1]; 5.56 µM) of the same molecule?
Answer: 0%

Question: And the “loss of total cells” value ([1]; 11.11 µM)?
Answer: -13.9%

Question: And the “loss of total cells” value ([1]; 22.22 µM)?
Answer: 3.2%

Question: What about the synaptosome phagocytosis ([2]; 1.39 µM) of the same molecule?
Answer: 90.5%

Question: What about the synaptosome phagocytosis ([2]; 2.78 µM) of the same molecule?
Answer: 100%

Question: What about the synaptosome phagocytosis ([2]; 5.56 µM) of the same molecule?
Answer: 120%

Question: And the synaptosome phagocytosis ([2]; 11.11 µM)?
Answer: 94.5%

Question: And the synaptosome phagocytosis ([2]; 22.22 µM)?
Answer: 92.6%

Question: Which results are given for `NCC#Cc1ccccc1` [3-Phenylpropargylamine hydrochloride]?
Answer: loss of total cells ([1]; 1.39 µM): -10.2%; loss of total cells ([1]; 2.78 µM): -31.4%; loss of total cells ([1]; 5.56 µM): -0.6%; loss of total cells ([1]; 11.11 µM): 9.6%; loss of total cells ([1]; 22.22 µM): 4.9%; synaptosome phagocytosis ([2]; 1.39 µM): 107%; synaptosome phagocytosis ([2]; 2.78 µM): 126%; synaptosome phagocytosis ([2]; 5.56 µM): 132%; synaptosome phagocytosis ([2]; 11.11 µM): 96%; synaptosome phagocytosis ([2]; 22.22 µM): 33.3%

Question: Which “loss of total cells” value ([1]; 1.39 µM) does the source give for `CN1C[C@@H](NS(=O)(=O)N(C)C)C[C@@H]2c3cccc4c3c(cn4C)C[C@H]21` [Mesulergine hydrochloride] here?
Answer: -18.5%

Question: What about the “loss of total cells” value ([1]; 2.78 µM) of the same molecule?
Answer: 6.8%

Question: What about the “loss of total cells” value ([1]; 5.56 µM) of the same molecule?
Answer: 13.6%

Question: What about the “loss of total cells” value ([1]; 11.11 µM) of the same molecule?
Answer: 17.1%

Question: What about the “loss of total cells” value ([1]; 22.22 µM) of the same molecule?
Answer: 15.9%

Question: And the synaptosome phagocytosis ([2]; 1.39 µM)?
Answer: 131%

Question: What about the synaptosome phagocytosis ([2]; 2.78 µM) of the same molecule?
Answer: 110%

Question: What about the synaptosome phagocytosis ([2]; 5.56 µM) of the same molecule?
Answer: 121%

Question: And the synaptosome phagocytosis ([2]; 11.11 µM)?
Answer: 126%

Question: And the synaptosome phagocytosis ([2]; 22.22 µM)?
Answer: 98.6%

Question: With `CCOC(=O)c1ncn2c1[C@@H]1CCCN1C(=O)c1cc(OC)ccc1-2` as the molecule, how does the “loss of total cells” value ([1]; 1.39 µM) read?
Answer: -24.2%

Question: What about the “loss of total cells” value ([1]; 2.78 µM) of the same molecule?
Answer: -20.4%

Question: What about the “loss of total cells” value ([1]; 5.56 µM) of the same molecule?
Answer: 3.3%

Question: And the “loss of total cells” value ([1]; 11.11 µM)?
Answer: -15.2%

Question: What about the “loss of total cells” value ([1]; 22.22 µM) of the same molecule?
Answer: -10.3%

Question: What about the synaptosome phagocytosis ([2]; 1.39 µM) of the same molecule?
Answer: 74.2%

Question: What about the synaptosome phagocytosis ([2]; 2.78 µM) of the same molecule?
Answer: 79.1%

Question: And the synaptosome phagocytosis ([2]; 5.56 µM)?
Answer: 114%

Question: And the synaptosome phagocytosis ([2]; 11.11 µM)?
Answer: 98.8%

Question: And the synaptosome phagocytosis ([2]; 22.22 µM)?
Answer: 95.6%
